Here are results for one molecule from paper PMC5958098, “The trimeric solution structure and fucose-binding mechanism of the core fucosylation-specific lectin PhoSL” (Scientific Reports, 2018).

These are yes or no findings as the source states them, for the method shown. Some binding calls cover weakened binding; strength is not graded here.

The assay has as its target PhoSL peptide (core α1–6 fucosylation-specific lectin from Pholiota squarrosa), chemically synthesized, 40 residues (Pholiota squarrosa). Put plainly: NMR solution structure; 0.3 mM PhoSL peptide, 20 mM d11-Tris-HCl pH 7.5, 1 mM d10-DTT, 308 K; symmetric trimer calculated from NOEs with NCS restraints; both purified.

B1: PhoSL peptide (core α1–6 fucosylation-specific lectin from Pholiota squarrosa), chemically synthesized, 40 residues (peptide)
chain: APVPVTKLVCDGDTYKCTAYLDYGDGKWVAQWDTAVFHTT
notes: PhoSL lectin of Pholiota squarrosa; it corresponds to the first of three PhoSL-like repeats of the 180-residue polypeptide; numbers count on: the 40-residue peptide; No N-terminal acetylation and no C-terminal amidation; Cys10 and Cys17 were reduced (DTT) in the NMR samples; Homotrimer by gel filtration combined with cross-linking, and by the NMR structure; also called PhoSL trimer; source: …
On to B1, for which the binding entry is given as “binds”.
